Experimental data reported in paper PMC12741050.
These are yes or no findings as the source states them, for the method shown. In cells and extracts the contact can be indirect. Some results given as binding are weak or reduced against the parent protein; the word gives no strength. Tags and fused reporters may be left off the sequences shown.

Protein sequences, listed by entry. Tags and fused reporters are not part of them.
UniProt P19474: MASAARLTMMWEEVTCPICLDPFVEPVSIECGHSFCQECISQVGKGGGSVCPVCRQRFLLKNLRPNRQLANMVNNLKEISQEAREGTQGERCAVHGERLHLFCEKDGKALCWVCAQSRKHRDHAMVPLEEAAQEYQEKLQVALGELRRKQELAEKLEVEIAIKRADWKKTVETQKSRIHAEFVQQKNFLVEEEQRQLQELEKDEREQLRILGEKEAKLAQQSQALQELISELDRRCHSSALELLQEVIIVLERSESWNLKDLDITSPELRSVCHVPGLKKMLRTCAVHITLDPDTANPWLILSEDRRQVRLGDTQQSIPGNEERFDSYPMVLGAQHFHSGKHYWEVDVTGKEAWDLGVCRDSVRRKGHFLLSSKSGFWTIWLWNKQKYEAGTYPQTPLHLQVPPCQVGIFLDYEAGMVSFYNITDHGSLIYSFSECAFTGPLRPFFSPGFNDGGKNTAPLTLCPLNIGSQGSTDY

Legend:
[1] = target: T1, Myc-SLC25A10 (human SLC25A10 pcDNA3.1-MYC-C) (human) (UniProt Q9UBX3); experiment: co-IP; CRC cells transfected with HA-TRIM21 together with Myc-SLC25A10, Flag-INHBA or empty vector; 48 h, MG132 20 μM 4 h; anti-Myc beads, blot with anti-HA
T1 sequence: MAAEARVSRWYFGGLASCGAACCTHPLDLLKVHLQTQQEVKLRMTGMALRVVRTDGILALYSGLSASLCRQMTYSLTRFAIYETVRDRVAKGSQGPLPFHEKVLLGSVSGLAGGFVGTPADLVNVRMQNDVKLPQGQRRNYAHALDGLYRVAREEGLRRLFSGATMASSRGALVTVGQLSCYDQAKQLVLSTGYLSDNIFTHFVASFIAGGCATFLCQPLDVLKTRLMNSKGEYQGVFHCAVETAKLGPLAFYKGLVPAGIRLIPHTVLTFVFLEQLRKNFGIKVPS

[2] = target: T2, HA-SLC25A10 (human SLC25A10 pcDNA3.1-HA-C) (human) (UniProt Q9UBX3); experiment: co-IP; CRC cell lysates; protein A/G magnetic beads with antibody or anti-Flag / anti-HA magnetic beads, overnight at 4 °C, six washes with lysis buffer, Western blot
T2 sequence: T1 sequence

binding [1] | binding [2] | Substance
binds |  | HA-TRIM21 (human TRIM21 pcDNA3.1-HA-C) (from UniProt P19474 1-475)
 | binds | TRIM21 in CRC cells (no TRIM21 construct named) (from UniProt P19474 1-475)
